Experimental data published in patent US12521402B2, “Biomarker and drug combinations for heart failure prediction” (Endothelium Scanning Nanotechnology Limited, priority 2022, dated 2026).

B1: SIAE (protein, UniProt Q9HAT2 24-523, looked up)
Sialate O-acetylesterase: IGFRFASYINNDMVLQKEPAGAVIWGFGTPGATVTVTLRQGQETIMKKVTSVKAHSDTWMVVLDPMKPGGPFEVMAQQTLEKINFTLRVHDVLFGDVWLCSGQSNMQMTVLQIFNATRELSNTAAYQSVRILSVSPIQAEQELEDLVAVDLQWSKPTSENLGHGYFKYMSAVCWLFGRHLYDTLQYPIGLIASSWGGTPIEAWSSGRSLKACGVPKQGSIPYDSVTGPSKHSVLWNAMIHPLCNMTLKGVVWYQGESNINYNTDLYNCTFPALIEDWRETFHRGSQGQTERFFPFGLVQLSSDLSKKSSDDGFPQIRWHQTADFGYVPNPKMPNTFMAVAMDLCDRDSPFGSIHPRDKQTVAYRLHLGARALAYGEKNLTFEGPLPEKIELLAHKGLLNLTYYQQIQVQKKDNKIFEISCCSDHRCKWLPASMNTVSTQSLTLAIDSCHGTVVALRYAWTTWPCEYKQCPLYHPSSALPAPPFIAFITDQGPGHQSNVAK
B2: HINT2 (protein, UniProt Q9BX68 18-163, looked up)
Adenosine …: VAATGVRGGQVRGAAGVTDGNEVAKAQQATPGGAAPTIFSRILDKSLPADILYEDQQCLVFRDVAPQAPVHFLVIPKKPIPRISQAEEEDQQLLGHLLLVAKQTAKAEGLGDGYRLVINDGKLGAQSVYHLHIHVLGGRQLQWPPG
B3: PRB2 (protein, UniProt P02812 17-416, looked up)
Basic salivary proline-rich …: QNLNEDVSQEESPSLIAGNPQGAPPQGGNKPQGPPSPPGKPQGPPPQGGNQPQGPPPPPGKPQGPPPQGGNKPQGPPPPGKPQGPPPQGDKSRSPRSPPGKPQGPPPQGGNQPQGPPPPPGKPQGPPPQGGNKPQGPPPPGKPQGPPPQGDNKSRSSRSPPGKPQGPPPQGGNQPQGPPPPPGKPQGPPPQGGNKPQGPPPPGKPQGPPPQGDNKSQSARSPPGKPQGPPPQGGNQPQGPPPPPGKPQGPPPQGGNKPQGPPPPGKPQGPPPQGGSKSRSSRSPPGKPQGPPPQGGNQPQGPPPPPGKPQGPPPQGGNKPQGPPPPGKPQGPPPQGGSKSRSARSPPGKPQGPPQQEGNNPQGPPPPAGGNPQQPQAPPAGQPQGPPRPPQGGRPSRPPQ
B4: PDIA3 (protein, UniProt P30101 25-505, looked up)
Protein disulfide-isomerase A3: SDVLELTDDNFESRISDTGSAGLMLVEFFAPWCGHCKRLAPEYEAAATRLKGIVPLAKVDCTANTNTCNKYGVSGYPTLKIFRDGEEAGAYDGPRTADGIVSHLKKQAGPASVPLRTEEEFKKFISDKDASIVGFFDDSFSEAHSEFLKAASNLRDNYRFAHTNVESLVNEYDDNGEGIILFRPSHLTNKFEDKTVAYTEQKMTSGKIKKFIQENIFGICPHMTEDNKDLIQGKDLLIAYYDVDYEKNAKGSNYWRNRVMMVAKKFLDAGHKLNFAVASRKTFSHELSDFGLESTAGEIPVVAIRTAKGEKFVMQEEFSRDGKALERFLQDYFDGNLKRYLKSEPIPESNDGPVKVVVAENFDEIVNNENKDVLIEFYAPWCGHCKNLEPKYKELGEKLSKDPNIVIAKMDATANDVPSPYEVRGFPTIYFSPANKKLNPKKYEGGRELSDFISYLQREATNPPVIQEEKPKKKKKAQEDL

Assay: Saliva proteomics: biomarker quantification by mass spectrometry SWATH in participants at risk of heart failure vs controls
Design: species or system human
Conditions: for AtRisk average: 'at risk' of heart failure group mean; for Control average: control group mean
[1] = differential expression (fold) between control and at-risk averages, saliva
[2] = saliva, mass spectrometry SWATH, 20 samples
[3] = saliva, mass spectrometry SWATH quantification

| Molecule | Control vs Risk [1] | AtRisk average [2] | Control average [2] | Control vs Risk (differential expression (fold) control vs 'at risk', printed as larger/smaller average whatever the direction) | AtRisk average [3] | Control average [3] |
| --- | --- | --- | --- | --- | --- | --- |
| B1 | 1.54 | 79,650 ng/ml | 122,586 ng/ml |  |  |  |
| B2 | 1.72 | 11,022 ng/ml | 6,406 ng/ml |  |  |  |
| B3 |  |  |  | 4.38 | 13,760,720 ng/ml | 60,289,539 ng/ml |
| B4 | 1.69 | 6,609,725 ng/ml | 11,140,398 ng/ml |  |  |  |
